Assay results from PMC3040744.

B1: HA-Cdc25A (enzyme, UniProt P30304 1-524)
chain: MELGPEPPHRRRLLFACSPPPASQPVVKALFGASAAGGLSPVTNLTVTMDQLQGLGSDYEQPLEVKNNSNLQRMGSSESTDSGFCLDSPGPLDSKENLENPMRRIHSLPQKLLGCSPALKRSHSDSLDHDIFQLIDPDENKENEAFEFKKPVRPVSRGCLHSHGLQEGKDLFTQRQNSAPARMLSSNERDSSEPGNFIPLFTPQSPVTATLSDEDDGFVDLLDGENLKNEEETPSCMASLWTAPLVMRTTNLDNRCKLFDSPSLCSSSTRSVLKRPERSQEESPPGSTKRRKSMSGASPKESTNPEKAHETLHQSLSLASSPKGTIENILDNDPRDLIGDFSKGYLFHTVAGKHQDLKYISPEIMASVLNGKFANLIKEFVIIDCRYPYEYEGGHIKGAVNLHMEEEVEDFLLKKPIVPTDGKRVIVVFHCEFSSERGPRMCRYVRERDRLGNEYPKLHYPELYVLKGGYKEFFMKCQSYCEPPSYRPMHHEDFKEDLKKFRTKSRTWAGEKSKREMYSRLKKL
B2: HA-Cdc25B (enzyme, UniProt P30305 1-580)
chain: MEVPQPEPAPGSALSPAGVCGGAQRPGHLPGLLLGSHGLLGSPVRAAASSPVTTLTQTMHDLAGLGSETPKSQVGTLLFRSRSRLTHLSLSRRASESSLSSESSESSDAGLCMDSPSPMDPHMAEQTFEQAIQAASRIIRNEQFAIRRFQSMPVRLLGHSPVLRNITNSQAPDGRRKSEAGSGAASSSGEDKENDGFVFKMPWKPTHPSSTHALAEWASRREAFAQRPSSAPDLMCLSPDRKMEVEELSPLALGRFSLTPAEGDTEEDDGFVDILESDLKDDDAVPPGMESLISAPLVKTLEKEEEKDLVMYSKCQRLFRSPSMPCSVIRPILKRLERPQDRDTPVQNKRRRSVTPPEEQQEAEEPKARVLRSKSLCHDEIENLLDSDHRELIGDYSKAFLLQTVDGKHQDLKYISPETMVALLTGKFSNIVDKFVIVDCRYPYEYEGGHIKTAVNLPLERDAESFLLKSPIAPCSLDKRVILIFHCEFSSERGPRMCRFIRERDRAVNDYPSLYYPEMYILKGGYKEFFPQHPNFCEPQDYRPMNHEAFKDELKTFRLKTRSWAGERSRRELCSRLQDQ
B3: GFP-Cdc25C (enzyme, UniProt P30307 1-473)
chain: MSTELFSSTREEGSSGSGPSFRSNQRKMLNLLLERDTSFTVCPDVPRTPVGKFLGDSANLSILSGGTPKRCLDLSNLSSGEITATQLTTSADLDETGHLDSSGLQEVHLAGMNHDQHLMKCSPAQLLCSTPNGLDRGHRKRDAMCSSSANKENDNGNLVDSEMKYLGSPITTVPKLDKNPNLGEDQAEEISDELMEFSLKDQEAKVSRSGLYRSPSMPENLNRPRLKQVEKFKDNTIPDKVKKKYFSGQGKLRKGLCLKKTVSLCDITITQMLEEDSNQGHLIGDFSKVCALPTVSGKHQDLKYVNPETVAALLSGKFQGLIEKFYVIDCRYPYEYLGGHIQGALNLYSQEELFNFFLKKPIVPLDTQKRIIIVFHCEFSSERGPRMCRCLREEDRSLNQYPALYYPELYILKGGYRDFFPEYMELCEPQSYCPMHHQDHKTELLRCRSQSKVQEGERQLREQIALLVKDMSP

The binders below were run against Flag-tagged hCdc14B catalytically inactive mutant (fl-hCdc14B^SL) (human) (assay: co-IP; cells co-transfected with expression plasmids, 10 µM MG132 for 6 h, lysed in buffer AM-120 with 0.5% NP-40, 10% glycerol, DNase I, RNase A; precipitated with anti-Flag (M2)-agarose; immunoblots).

binding, binds:
B1
B2
B3

These are yes or no findings as the source states them, for the method shown. Binding seen in cells or lysates may run through a third protein. A result given as binding can be weak or reduced; the word gives no strength. Where a sequence is shown, tags or fusion partners need not be part of it.
